The target in assay [1] is androgen receptor (AR) ligand binding domain (UniProt P10275). The experiment in a line: surface plasmon resonance, recombinant proteins, 0.5 M NaCl. A general note: In SPR one partner is held on a chip, and binding of the other changes the refractive index at the surface.
The target is the same in assay [2]. The experiment in a line: recombinant protein-based assay (legend of FIG. 6C).
The target is the same in assay [3]. Description: crystal structure (legend of FIG. 7B).
For assay [4] the target is unchanged. Description: crystal structure.
Assay [5] shares this target. The experiment in a line: crystal structure (legend of FIG. 6B).

The chains behind the UniProt entries cited, without tags or fusion partners. Residues count along the entry.
UniProt P10275, residues 664-920: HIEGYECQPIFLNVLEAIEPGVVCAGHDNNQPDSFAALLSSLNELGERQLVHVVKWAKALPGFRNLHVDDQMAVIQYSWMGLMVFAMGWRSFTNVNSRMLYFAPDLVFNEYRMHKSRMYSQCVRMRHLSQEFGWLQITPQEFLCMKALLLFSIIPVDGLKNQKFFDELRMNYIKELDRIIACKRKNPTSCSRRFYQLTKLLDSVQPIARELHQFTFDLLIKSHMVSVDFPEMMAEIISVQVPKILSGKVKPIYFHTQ

These are yes or no findings as the source states them, for the method shown. Some entries that bind do so weakly or less than the wild type.

As for MLACKVRQAGFWSPPLQREQRCCAPISQIKDRPILLPPRVLFSLIRKHLL [PRAC1], the binding result in assay [1] and in assay [2] was “binds” each time.
On to LFSLIRKHLL [PRAC1 peptide … (SEQ ID NO:37)], for which the binding entry in assay [3], in assay [4] and in assay [5] was “binds” throughout.

The values above are taken from patent US20260265300A1, “TARGETING PRAC1 IN STEROID HORMONE DRIVEN CANCER” (Fred Hutchinson Cancer Center, priority 2023, published 2026).
